Some targets named below: PLA2G7 (UniProt Q13093); PLOD3 (UniProt O60568); POFUT2 (UniProt Q9Y2G5).
Holding throughout (experiment): protein microarray (ProtoArray v5.0), streptavidin-Alexa Fluor 647
Holding throughout (conditions): 3'-biotin; 20 mM Tris (pH 7.5), 5 mM MgCl2, 100 mM KCl, 0.1% Tween-20, A/T-rich and random oligonucleotide blockers; temperature not stated; high values mean tight binding

The chains behind the UniProt entries cited, without tags or fusion partners. Where a name states a change or a piece, a line headed by the entry shows the natural chain unless it says otherwise.
UniProt Q13093: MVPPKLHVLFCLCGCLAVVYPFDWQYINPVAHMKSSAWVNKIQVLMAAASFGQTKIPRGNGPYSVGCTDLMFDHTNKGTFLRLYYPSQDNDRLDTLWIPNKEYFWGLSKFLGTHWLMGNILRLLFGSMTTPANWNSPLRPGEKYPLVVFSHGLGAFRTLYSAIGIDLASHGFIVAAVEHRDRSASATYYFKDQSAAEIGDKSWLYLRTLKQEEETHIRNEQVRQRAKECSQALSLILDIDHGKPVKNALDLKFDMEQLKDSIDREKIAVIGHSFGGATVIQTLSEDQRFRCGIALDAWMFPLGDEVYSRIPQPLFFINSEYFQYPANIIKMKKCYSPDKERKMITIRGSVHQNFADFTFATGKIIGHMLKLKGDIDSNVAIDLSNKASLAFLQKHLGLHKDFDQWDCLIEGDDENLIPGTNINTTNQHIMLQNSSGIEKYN
UniProt O60568: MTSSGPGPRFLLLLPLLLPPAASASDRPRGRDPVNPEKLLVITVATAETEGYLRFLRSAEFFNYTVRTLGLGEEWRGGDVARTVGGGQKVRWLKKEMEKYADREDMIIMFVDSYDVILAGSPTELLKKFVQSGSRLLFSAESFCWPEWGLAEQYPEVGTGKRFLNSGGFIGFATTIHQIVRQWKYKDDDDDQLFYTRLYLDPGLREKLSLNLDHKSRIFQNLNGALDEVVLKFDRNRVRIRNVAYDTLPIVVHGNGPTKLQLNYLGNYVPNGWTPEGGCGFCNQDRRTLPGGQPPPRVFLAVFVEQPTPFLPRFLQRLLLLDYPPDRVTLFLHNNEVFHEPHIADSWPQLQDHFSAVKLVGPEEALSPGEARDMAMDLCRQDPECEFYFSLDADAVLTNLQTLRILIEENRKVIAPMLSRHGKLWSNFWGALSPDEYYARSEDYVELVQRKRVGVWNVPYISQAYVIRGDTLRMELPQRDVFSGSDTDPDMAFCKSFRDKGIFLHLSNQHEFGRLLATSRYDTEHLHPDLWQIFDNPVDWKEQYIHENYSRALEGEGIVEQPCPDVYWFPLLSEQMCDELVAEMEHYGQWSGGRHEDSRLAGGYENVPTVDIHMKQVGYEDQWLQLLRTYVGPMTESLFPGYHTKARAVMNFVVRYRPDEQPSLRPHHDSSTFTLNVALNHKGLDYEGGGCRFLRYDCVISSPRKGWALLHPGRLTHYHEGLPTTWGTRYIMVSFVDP
UniProt Q9Y2G5: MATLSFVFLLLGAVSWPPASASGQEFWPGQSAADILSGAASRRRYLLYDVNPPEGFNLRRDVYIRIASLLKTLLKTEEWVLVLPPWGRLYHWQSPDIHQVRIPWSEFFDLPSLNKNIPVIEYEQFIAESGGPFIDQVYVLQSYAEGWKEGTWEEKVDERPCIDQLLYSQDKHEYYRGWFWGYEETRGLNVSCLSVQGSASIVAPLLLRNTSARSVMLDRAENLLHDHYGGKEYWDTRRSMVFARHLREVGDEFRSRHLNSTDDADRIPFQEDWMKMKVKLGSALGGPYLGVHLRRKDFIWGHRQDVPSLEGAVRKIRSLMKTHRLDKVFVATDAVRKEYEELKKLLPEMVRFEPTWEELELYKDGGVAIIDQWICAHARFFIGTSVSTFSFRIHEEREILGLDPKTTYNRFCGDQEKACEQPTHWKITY

For the next test, the system named is PLB1 (human).
The test system of another test is PLD3 (human).
A further test deals with PLEKHA3 (human).
The test system of a further test is PLEKHG5 (human).
The next test has as its system PLG (human).
The subject of another test is PLS3 (human).
The next test concerns PLXDC1 (human).
The test system of the next test is PMCH (human).
A further test deals with PMP70 (human).
For a further test, the system named is PNMA1 (human).
For a further test, the target named is T1, PNMT (UniProt P11086).
T1 sequence: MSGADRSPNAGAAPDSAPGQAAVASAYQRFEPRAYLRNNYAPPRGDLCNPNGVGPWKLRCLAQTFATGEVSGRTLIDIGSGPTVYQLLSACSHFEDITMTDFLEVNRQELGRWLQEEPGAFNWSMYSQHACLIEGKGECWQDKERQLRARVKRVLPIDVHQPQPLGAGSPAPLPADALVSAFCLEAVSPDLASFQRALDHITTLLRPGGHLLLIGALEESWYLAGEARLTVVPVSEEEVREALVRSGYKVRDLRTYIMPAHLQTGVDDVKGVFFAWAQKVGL

A further test has as its system PNPLA2 (human).
Another test has as its system PNPLA3 (human).
Another test deals with PNPO (human).
A further test has as its system PNPT1 (human).
The next test relates to POFUT1 (human).
Another test deals with POLA2 (human).

“And” between values parts separate entries of the source, which are not always exact repeats. Equal entries are not always repeated. The list shows a part of the results. For some assays here: The exact form of the protein is not confirmed.

For the sequence “GGGAGGCTGAGGCAGG [G4-1 biotinylated (PQS2)]”, the binding signal with PLA2G7 is -0.319 z-score; in the test with PLB1 (human), -0.313 z-score; in the test on PLD3 (human) it was -0.31 z-score; in the test with PLEKHA3 (human) it was -0.302 z-score; in the test with PLEKHG5 (human) it was -0.278 z-score; with PLG (human), -0.27 z-score and -0.249 z-score. In addition, the binding signal is -0.31 z-score in the test with PLOD3; -0.349 z-score with PLS3 (human); -0.336 z-score in the test on PLXDC1 (human); -0.339 z-score with PMCH (human); -0.32 z-score in the test on PMP70 (human); -0.338 z-score in the test with PNMA1 (human). Also, the binding signal with PNMT was -0.31 z-score; in the test with PNPLA2 (human), -0.309 z-score; in the test with PNPLA3 (human), -0.291 z-score; in the test on PNPO (human), -0.319 z-score; with PNPT1 (human), -0.234 z-score; in the test on POFUT1 (human) it was -0.308 z-score. Also, the results for the binding signal in the test with POFUT2 and in the test on POLA2 (human) were -0.286 z-score and -0.337 z-score, respectively.

These data come from publication PMC5996148.
